# Reference: the supplement of paper PMC6411743
# Sequences of proteins named here, by UniProt entry; tags and fusion partners are left off. A change or cut given only in a name is not applied to a line headed by its entry.
# UniProt P51812, whole entry: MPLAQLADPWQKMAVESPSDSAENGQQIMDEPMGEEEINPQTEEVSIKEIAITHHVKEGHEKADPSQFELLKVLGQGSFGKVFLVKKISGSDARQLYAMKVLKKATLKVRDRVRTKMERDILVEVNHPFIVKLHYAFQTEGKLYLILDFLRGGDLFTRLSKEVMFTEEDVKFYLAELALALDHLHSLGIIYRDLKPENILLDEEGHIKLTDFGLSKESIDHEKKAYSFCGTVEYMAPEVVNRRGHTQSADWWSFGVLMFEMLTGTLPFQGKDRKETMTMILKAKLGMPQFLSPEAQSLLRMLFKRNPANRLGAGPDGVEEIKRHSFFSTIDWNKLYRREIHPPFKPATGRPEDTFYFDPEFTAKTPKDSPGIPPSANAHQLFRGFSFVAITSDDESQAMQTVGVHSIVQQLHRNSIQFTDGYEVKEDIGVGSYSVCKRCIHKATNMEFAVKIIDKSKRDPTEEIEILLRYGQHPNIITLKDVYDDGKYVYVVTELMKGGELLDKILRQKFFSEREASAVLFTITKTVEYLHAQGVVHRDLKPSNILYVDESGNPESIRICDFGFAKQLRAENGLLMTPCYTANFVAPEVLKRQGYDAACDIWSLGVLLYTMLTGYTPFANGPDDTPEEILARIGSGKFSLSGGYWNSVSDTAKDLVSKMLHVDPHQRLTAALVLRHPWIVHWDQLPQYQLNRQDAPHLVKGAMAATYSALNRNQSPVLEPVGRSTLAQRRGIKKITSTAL
# UniProt P67809, whole entry: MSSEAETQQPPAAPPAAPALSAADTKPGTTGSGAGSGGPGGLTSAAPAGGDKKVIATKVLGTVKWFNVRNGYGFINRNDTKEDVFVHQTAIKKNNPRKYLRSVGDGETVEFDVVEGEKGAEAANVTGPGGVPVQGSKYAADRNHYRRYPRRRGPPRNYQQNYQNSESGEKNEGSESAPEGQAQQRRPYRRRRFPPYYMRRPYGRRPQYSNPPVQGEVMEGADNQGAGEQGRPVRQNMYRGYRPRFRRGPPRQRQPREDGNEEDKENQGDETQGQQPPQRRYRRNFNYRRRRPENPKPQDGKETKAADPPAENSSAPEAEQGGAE
# UniProt P51572: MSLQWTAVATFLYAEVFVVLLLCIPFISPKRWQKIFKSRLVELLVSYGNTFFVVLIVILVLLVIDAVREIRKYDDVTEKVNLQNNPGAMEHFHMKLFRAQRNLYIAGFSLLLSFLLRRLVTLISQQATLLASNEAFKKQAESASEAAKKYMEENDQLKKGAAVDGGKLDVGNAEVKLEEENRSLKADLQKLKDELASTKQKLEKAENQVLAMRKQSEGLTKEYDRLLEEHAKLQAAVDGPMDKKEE
# UniProt P61019: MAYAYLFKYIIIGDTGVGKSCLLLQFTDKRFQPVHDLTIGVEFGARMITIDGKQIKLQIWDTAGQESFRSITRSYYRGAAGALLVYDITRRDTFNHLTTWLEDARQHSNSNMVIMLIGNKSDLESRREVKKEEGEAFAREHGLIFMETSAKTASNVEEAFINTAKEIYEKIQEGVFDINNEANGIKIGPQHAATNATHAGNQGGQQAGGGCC
# UniProt P61586, whole entry: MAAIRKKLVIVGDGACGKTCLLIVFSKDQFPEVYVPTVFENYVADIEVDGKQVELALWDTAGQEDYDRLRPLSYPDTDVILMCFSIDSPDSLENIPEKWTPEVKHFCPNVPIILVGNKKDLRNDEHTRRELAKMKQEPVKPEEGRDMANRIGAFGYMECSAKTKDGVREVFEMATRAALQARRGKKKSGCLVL
# UniProt P62937, whole entry, looked up: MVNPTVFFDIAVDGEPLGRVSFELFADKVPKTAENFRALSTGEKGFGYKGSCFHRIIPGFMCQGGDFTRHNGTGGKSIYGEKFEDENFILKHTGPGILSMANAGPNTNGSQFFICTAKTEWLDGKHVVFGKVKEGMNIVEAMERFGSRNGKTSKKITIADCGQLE
# UniProt P61026: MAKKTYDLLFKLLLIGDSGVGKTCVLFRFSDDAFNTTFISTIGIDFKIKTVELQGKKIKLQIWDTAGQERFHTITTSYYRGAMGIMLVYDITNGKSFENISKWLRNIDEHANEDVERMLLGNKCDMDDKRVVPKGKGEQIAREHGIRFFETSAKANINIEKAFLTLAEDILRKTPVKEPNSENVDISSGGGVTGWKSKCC
# UniProt P83436: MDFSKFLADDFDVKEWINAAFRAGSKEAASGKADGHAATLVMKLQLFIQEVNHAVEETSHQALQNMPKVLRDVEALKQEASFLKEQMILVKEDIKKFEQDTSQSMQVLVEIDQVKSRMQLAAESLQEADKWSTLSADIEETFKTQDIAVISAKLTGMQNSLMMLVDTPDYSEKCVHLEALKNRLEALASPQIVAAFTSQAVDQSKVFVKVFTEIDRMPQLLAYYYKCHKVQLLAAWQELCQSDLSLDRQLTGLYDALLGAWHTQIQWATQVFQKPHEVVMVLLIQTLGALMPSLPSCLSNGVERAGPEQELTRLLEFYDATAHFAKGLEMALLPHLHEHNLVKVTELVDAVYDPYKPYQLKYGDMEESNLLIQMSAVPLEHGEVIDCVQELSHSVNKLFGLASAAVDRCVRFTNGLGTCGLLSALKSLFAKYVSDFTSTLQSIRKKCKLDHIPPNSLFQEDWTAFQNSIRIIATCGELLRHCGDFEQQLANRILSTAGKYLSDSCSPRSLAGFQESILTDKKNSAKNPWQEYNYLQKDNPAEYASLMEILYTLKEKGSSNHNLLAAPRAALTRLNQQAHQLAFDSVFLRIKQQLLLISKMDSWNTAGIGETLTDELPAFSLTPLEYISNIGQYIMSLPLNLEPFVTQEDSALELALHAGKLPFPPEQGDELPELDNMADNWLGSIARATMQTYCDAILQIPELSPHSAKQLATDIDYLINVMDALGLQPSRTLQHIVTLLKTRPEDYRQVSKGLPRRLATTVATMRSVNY
# UniProt P62699: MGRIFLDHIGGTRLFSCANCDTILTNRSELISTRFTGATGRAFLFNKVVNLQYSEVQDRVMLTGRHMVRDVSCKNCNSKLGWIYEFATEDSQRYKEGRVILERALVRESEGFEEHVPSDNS
# UniProt P54136: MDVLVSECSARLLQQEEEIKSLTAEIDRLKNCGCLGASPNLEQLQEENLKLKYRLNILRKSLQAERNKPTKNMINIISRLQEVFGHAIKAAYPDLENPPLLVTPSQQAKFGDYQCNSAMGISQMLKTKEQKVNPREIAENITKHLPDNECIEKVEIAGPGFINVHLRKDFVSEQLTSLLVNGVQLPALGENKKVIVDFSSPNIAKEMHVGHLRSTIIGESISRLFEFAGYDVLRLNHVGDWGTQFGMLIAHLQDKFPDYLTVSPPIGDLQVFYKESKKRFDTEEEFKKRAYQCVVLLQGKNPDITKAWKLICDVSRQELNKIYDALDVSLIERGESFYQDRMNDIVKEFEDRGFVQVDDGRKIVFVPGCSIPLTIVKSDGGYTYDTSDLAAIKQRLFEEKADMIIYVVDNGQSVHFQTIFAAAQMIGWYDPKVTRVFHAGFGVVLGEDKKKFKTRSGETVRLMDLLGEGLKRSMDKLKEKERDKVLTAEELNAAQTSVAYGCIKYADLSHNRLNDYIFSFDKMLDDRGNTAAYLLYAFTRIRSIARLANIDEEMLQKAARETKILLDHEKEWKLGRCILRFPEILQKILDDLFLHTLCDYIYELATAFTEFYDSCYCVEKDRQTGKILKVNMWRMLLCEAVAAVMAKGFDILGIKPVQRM
# UniProt P51571: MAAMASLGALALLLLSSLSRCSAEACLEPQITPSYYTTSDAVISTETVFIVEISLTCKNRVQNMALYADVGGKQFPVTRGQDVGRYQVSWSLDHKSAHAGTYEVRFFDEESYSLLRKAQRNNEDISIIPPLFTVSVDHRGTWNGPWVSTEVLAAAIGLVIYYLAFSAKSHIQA
# UniProt P53618: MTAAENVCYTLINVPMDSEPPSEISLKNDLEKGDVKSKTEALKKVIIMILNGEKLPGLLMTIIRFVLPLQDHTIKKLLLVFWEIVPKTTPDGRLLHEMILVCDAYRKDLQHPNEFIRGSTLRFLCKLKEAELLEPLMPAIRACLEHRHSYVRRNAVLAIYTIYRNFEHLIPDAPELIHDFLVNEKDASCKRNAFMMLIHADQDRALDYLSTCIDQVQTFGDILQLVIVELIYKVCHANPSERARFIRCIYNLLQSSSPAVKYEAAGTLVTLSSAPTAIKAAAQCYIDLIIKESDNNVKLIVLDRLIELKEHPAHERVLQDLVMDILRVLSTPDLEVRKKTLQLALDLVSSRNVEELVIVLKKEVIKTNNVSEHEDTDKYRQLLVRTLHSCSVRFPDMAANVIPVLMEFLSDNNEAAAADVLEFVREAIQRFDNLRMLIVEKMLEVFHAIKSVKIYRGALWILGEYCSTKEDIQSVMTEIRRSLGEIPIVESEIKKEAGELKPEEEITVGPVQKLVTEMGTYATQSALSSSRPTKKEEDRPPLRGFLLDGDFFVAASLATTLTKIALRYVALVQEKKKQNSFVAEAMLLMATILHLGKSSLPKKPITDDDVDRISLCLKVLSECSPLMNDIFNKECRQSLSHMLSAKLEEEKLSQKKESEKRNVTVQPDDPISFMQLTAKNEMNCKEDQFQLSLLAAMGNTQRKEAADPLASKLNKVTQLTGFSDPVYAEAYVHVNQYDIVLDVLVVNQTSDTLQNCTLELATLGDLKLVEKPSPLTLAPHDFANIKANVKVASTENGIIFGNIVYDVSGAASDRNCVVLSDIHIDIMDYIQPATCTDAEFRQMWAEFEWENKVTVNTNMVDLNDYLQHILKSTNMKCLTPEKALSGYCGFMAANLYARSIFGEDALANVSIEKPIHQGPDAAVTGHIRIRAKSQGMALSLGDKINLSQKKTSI
# UniProt P98095: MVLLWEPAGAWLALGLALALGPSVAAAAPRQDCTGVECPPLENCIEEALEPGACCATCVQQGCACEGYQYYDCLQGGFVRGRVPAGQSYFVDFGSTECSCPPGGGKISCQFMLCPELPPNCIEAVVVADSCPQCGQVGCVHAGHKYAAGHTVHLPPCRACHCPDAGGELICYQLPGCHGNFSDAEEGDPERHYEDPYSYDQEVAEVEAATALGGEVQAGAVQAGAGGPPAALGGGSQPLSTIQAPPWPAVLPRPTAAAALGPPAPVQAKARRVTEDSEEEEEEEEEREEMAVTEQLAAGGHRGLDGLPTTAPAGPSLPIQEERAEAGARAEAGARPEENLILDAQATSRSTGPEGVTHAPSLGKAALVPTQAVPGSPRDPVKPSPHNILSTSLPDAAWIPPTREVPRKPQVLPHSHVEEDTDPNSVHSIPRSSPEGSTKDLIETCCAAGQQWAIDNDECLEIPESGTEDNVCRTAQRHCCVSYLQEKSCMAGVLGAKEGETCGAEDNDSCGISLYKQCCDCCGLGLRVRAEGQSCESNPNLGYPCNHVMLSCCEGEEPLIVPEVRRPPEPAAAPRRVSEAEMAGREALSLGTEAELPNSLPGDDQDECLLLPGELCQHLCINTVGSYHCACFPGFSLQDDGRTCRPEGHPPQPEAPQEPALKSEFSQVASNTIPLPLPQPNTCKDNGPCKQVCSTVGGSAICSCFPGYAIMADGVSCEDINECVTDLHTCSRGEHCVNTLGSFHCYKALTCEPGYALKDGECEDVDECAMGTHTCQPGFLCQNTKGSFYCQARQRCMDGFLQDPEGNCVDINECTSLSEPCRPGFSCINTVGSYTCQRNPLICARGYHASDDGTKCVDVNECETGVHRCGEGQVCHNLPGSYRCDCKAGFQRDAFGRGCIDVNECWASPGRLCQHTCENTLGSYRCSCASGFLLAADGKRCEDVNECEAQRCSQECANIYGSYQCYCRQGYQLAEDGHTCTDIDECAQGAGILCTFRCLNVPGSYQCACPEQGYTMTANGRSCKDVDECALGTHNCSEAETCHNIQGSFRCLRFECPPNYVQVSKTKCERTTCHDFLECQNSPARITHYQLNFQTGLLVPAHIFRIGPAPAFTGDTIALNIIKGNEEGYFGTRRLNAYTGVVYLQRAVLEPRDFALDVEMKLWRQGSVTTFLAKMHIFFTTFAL
# UniProt P53701: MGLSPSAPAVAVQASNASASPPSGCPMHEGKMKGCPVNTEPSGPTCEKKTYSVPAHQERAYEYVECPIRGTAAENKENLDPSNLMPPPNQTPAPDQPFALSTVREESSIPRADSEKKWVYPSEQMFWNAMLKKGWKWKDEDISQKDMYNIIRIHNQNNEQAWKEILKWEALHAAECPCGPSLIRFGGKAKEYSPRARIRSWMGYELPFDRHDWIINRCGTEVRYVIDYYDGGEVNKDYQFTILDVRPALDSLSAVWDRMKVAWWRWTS
# UniProt P55769: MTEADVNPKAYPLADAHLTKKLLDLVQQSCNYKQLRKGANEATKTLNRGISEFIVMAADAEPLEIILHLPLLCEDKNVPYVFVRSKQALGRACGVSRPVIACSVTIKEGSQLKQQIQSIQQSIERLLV
# UniProt P56377: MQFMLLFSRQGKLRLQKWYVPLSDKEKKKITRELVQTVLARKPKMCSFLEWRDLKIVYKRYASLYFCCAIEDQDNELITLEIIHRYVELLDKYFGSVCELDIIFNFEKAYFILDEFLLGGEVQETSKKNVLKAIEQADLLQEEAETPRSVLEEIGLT
# ± gives the standard deviation of the averaged measurements. The list shows a part of the results.
# Compound: Nc1nc2c(ncn2[C@@H]2O[C@H](COP(=O)(O)OP(=O)(O)OP(=O)(O)O)[C@@H](O)[C@H]2O)c(=O)[nH]1 [guanosine triphosphate]
# Test: NP40-soluble protein abundance relative to vehicle (solubility fold change) (ratio); higher = more soluble protein in presence of GTP
# Method in brief: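 Crude Jurkat lysate, prepared by Dounce homogenisation, was exposed to eight concentrations from 0.1 to 10 mM for 10 min at room temperature and then 3 min at 37 °C. Solubilisation used 0.8% NP40 with benzonase for 60 min at 4 °C, followed by ultracentrifugation and TMT labelling of the supernatant for LC-MS/MS. After vsn normalisation of intensities, each value is the fold change against the detergent-processed vehicle within each replicate, across three independent experiments.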
Target,NP40-soluble protein abundance (concentration: 0.1mM),NP40-soluble protein abundance (concentration: 0.5mM),NP40-soluble protein abundance (concentration: 1mM),NP40-soluble protein abundance (concentration: 2mM),NP40-soluble protein abundance (concentration: 4mM),NP40-soluble protein abundance (concentration: 6mM),NP40-soluble protein abundance (concentration: 8mM),NP40-soluble protein abundance (concentration: 10mM)
UniProt P62495,0.975 ± 0.033,1.02 ± 0.048,0.903 ± 0.027,0.898 ± 0.061,0.842 ± 0.048,0.893 ± 0.054,0.832 ± 0.025,0.81 ± 0.086
UniProt P51812,1.09 ± 0.061,1.09 ± 0.06,1.03 ± 0.079,1.02 ± 0.04,0.997 ± 0.013,0.977 ± 0.019,0.97 ± 0.025,0.929 ± 0.044
SUB1 (UniProt P53999),0.83 ± 0.063,0.786 ± 0.031,0.908 ± 0.024,0.856 ± 0.016,0.834 ± 0.025,0.899 ± 0.055,0.836 ± 0.082,0.954 ± 0.037
YBX1 (UniProt P67809),0.913 ± 0.077,0.937 ± 0.14,1.09 ± 0.079,1.04 ± 0.17,0.991 ± 0.1,1.03 ± 0.13,1.073 ± 0.01,1.09 ± 0.11
UniProt P51572 and related entries,0.89 ± 0.041,0.914 ± 0.071,0.996 ± 0.052,0.988 ± 0.074,1.02 ± 0.087,1.11 ± 0.078,1.09 ± 0.042,1.16 ± 0.066
RBM5 (UniProt P52756),0.978 ± 0.035,1.02 ± 0.073,1.1 ± 0.11,1.13 ± 0.1,1.22 ± 0.16,1.19 ± 0.18,1.23 ± 0.16,1.26 ± 0.14
UniProt P62263,1 ± 0.06,1 ± 0.011,1.07 ± 0.032,0.994 ± 0.11,0.935 ± 0.15,0.887 ± 0.15,0.875 ± 0.16,0.911 ± 0.2
UniProt P80217 and related entries,0.97 ± 0.043,1.01 ± 0.063,0.926 ± 0.044,0.902 ± 0.076,0.877 ± 0.059,0.911 ± 0.067,0.934 ± 0.052,0.938 ± 0.051
UniProt P56181-2|P56181,0.987 ± 0.04,1.03 ± 0.032,1.09 ± 0.072,1.1 ± 0.071,1.1 ± 0.091,1.12 ± 0.091,1.22 ± 0.16,1.23 ± 0.18
UniProt P51532 and related entries,1.016 ± 0.0073,1.07 ± 0.045,1.1 ± 0.083,1.15 ± 0.13,1.19 ± 0.15,1.2 ± 0.17,1.24 ± 0.23,1.21 ± 0.21
CCT4 (UniProt P50991),1.03 ± 0.037,1.1 ± 0.11,1.12 ± 0.12,1.13 ± 0.16,1.11 ± 0.18,1.1 ± 0.19,1.09 ± 0.21,1.05 ± 0.21
RAB2A (UniProt P61019),0.92 ± 0.035,0.9465 ± 0.0077,0.848 ± 0.042,0.854 ± 0.034,0.818 ± 0.054,0.839 ± 0.036,0.792 ± 0.062,0.821 ± 0.065
MRPS15 (UniProt P82914),1.02 ± 0.13,1.12 ± 0.19,1.3 ± 0.25,1.47 ± 0.33,1.54 ± 0.41,1.49 ± 0.4,1.46 ± 0.41,1.49 ± 0.46
NUP107 (UniProt P57740),1.06 ± 0.06,1.08 ± 0.043,1.06 ± 0.036,1.1 ± 0.054,1.11 ± 0.072,1.12 ± 0.04,1.13 ± 0.073,1.15 ± 0.097
METAP1 (UniProt P53582),1.09 ± 0.069,1.1 ± 0.05,1.08 ± 0.099,1.12 ± 0.12,1.19 ± 0.14,1.24 ± 0.12,1.25 ± 0.072,1.23 ± 0.13
RHOA (UniProt P61586),0.912 ± 0.15,0.965 ± 0.18,1.01 ± 0.2,0.94 ± 0.28,0.911 ± 0.21,0.959 ± 0.27,0.967 ± 0.12,0.945 ± 0.19
UniProt P62937 and related entries,0.911 ± 0.089,0.933 ± 0.053,0.879 ± 0.11,0.889 ± 0.077,0.815 ± 0.12,0.882 ± 0.068,0.852 ± 0.071,0.797 ± 0.12
UniProt P51398 and related entries,1.04 ± 0.064,1.09 ± 0.15,1.12 ± 0.22,1.21 ± 0.28,1.23 ± 0.3,1.17 ± 0.28,1.08 ± 0.21,1.03 ± 0.21

# Quoted at random: three records from the list, in no set order.
Target,NP40-soluble protein abundance (concentration: 0.1mM),NP40-soluble protein abundance (concentration: 0.5mM),NP40-soluble protein abundance (concentration: 1mM),NP40-soluble protein abundance (concentration: 2mM),NP40-soluble protein abundance (concentration: 4mM),NP40-soluble protein abundance (concentration: 6mM),NP40-soluble protein abundance (concentration: 8mM),NP40-soluble protein abundance (concentration: 10mM)
RAB2A (UniProt P61019),0.92 ± 0.035,0.9465 ± 0.0077,0.848 ± 0.042,0.854 ± 0.034,0.818 ± 0.054,0.839 ± 0.036,0.792 ± 0.062,0.821 ± 0.065
UniProt P51812,1.09 ± 0.061,1.09 ± 0.06,1.03 ± 0.079,1.02 ± 0.04,0.997 ± 0.013,0.977 ± 0.019,0.97 ± 0.025,0.929 ± 0.044
UniProt P51532 and related entries,1.016 ± 0.0073,1.07 ± 0.045,1.1 ± 0.083,1.15 ± 0.13,1.19 ± 0.15,1.2 ± 0.17,1.24 ± 0.23,1.21 ± 0.21

# Remaining list, next part

Target,NP40-soluble protein abundance (concentration: 0.1mM),NP40-soluble protein abundance (concentration: 0.5mM),NP40-soluble protein abundance (concentration: 1mM),NP40-soluble protein abundance (concentration: 2mM),NP40-soluble protein abundance (concentration: 4mM),NP40-soluble protein abundance (concentration: 6mM),NP40-soluble protein abundance (concentration: 8mM),NP40-soluble protein abundance (concentration: 10mM)
UniProt P61026,0.999 ± 0.018,0.988 ± 0.062,0.905 ± 0.048,0.852 ± 0.021,0.846 ± 0.1,0.848 ± 0.011,0.803 ± 0.068,0.761 ± 0.078
COG7 (UniProt P83436),0.974 ± 0.062,0.969 ± 0.022,1 ± 0.032,1 ± 0.036,1.03 ± 0.068,1.01 ± 0.06,1.02 ± 0.058,1.02 ± 0.07
HDAC4 (UniProt P56524),0.991 ± 0.11,0.926 ± 0.07,0.972 ± 0.098,0.952 ± 0.069,0.975 ± 0.11,0.943 ± 0.1,0.988 ± 0.097,0.969 ± 0.075
UniProt P62277,0.945 ± 0.11,0.964 ± 0.11,1.03 ± 0.22,1.02 ± 0.3,0.802 ± 0.25,0.796 ± 0.27,0.626 ± 0.17,0.816 ± 0.29
YPEL5 (UniProt P62699),1.35 ± 0.14,1.25 ± 0.03,1.332 ± 0.0098,1.54 ± 0.029,1.47 ± 0.044,1.39 ± 0.11,1.42 ± 0.079,1.27 ± 0.032
SLC25A1 (UniProt P53007),1.09 ± 0.064,1.08 ± 0.048,0.989 ± 0.057,1.1 ± 0.11,1.1 ± 0.11,1.14 ± 0.19,1.08 ± 0.04,1.09 ± 0.073
RARS (UniProt P54136),1.11 ± 0.096,1.17 ± 0.19,1.12 ± 0.19,1.23 ± 0.29,1.28 ± 0.27,1.26 ± 0.3,1.22 ± 0.25,1.14 ± 0.25
UniProt P51790 and related entries,1.06 ± 0.039,0.966 ± 0.056,1 ± 0.038,0.977 ± 0.028,1.04 ± 0.051,0.9855 ± 0.0084,1.002 ± 0.0032,0.953 ± 0.037
SSR4 (UniProt P51571),0.98 ± 0.087,0.994 ± 0.056,0.95 ± 0.064,0.911 ± 0.1,0.888 ± 0.075,0.929 ± 0.091,0.936 ± 0.046,0.901 ± 0.075
UniProt P62258,0.888 ± 0.069,0.832 ± 0.047,0.989 ± 0.066,0.943 ± 0.059,0.933 ± 0.075,0.936 ± 0.066,0.884 ± 0.12,0.917 ± 0.057
COPB1 (UniProt P53618),1.05 ± 0.067,1.09 ± 0.08,1.01 ± 0.07,1.05 ± 0.11,1.04 ± 0.12,1.02 ± 0.11,1.02 ± 0.084,0.991 ± 0.074
UniProt P98095 and related entries,1.02 ± 0.012,1.03 ± 0.034,1.03 ± 0.058,1.04 ± 0.036,1.02 ± 0.067,1.03 ± 0.075,1.02 ± 0.028,1.06 ± 0.023
HCCS (UniProt P53701),1.02 ± 0.096,1.04 ± 0.074,0.979 ± 0.12,0.947 ± 0.078,0.894 ± 0.11,0.907 ± 0.11,0.897 ± 0.12,0.877 ± 0.094
UniProt P50851-2,1.02 ± 0.011,1.07 ± 0.015,1.006 ± 0.0086,1.01 ± 0.018,0.984 ± 0.026,0.99 ± 0.021,0.981 ± 0.011,0.966 ± 0.03
UniProt P55769,0.888 ± 0.054,0.893 ± 0.024,1.06 ± 0.089,1.11 ± 0.036,1.22 ± 0.065,1.315 ± 0.0069,1.33 ± 0.11,1.63 ± 0.15
AP1S2 (UniProt P56377),0.952 ± 0.21,1.06 ± 0.11,1.05 ± 0.24,1.12 ± 0.25,1.29 ± 0.21,1.15 ± 0.15,1.16 ± 0.13,1.2 ± 0.026
UniProt P62913 and related entries,1.03 ± 0.037,1.04 ± 0.057,1.1 ± 0.11,1.03 ± 0.13,1.01 ± 0.16,0.978 ± 0.14,0.996 ± 0.15,1.02 ± 0.15
MRPS10 (UniProt P82664),1.04 ± 0.12,1.01 ± 0.066,1.26 ± 0.31,1.38 ± 0.34,1.4 ± 0.32,1.3 ± 0.32,1.29 ± 0.28,1.25 ± 0.28
